Percent effect of library compounds

Mtb glucose medium: 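Whole-cell growth test on Mycobacterium tuberculosis, read after 3 days in glucose-containing 7H9 medium; the read-out is not stated. Concentration: 50 µM. The record gives no direction; compounds that gave an IC50 in retests scored well above the rest, so higher reads as more growth inhibition. Of about 69,000 compounds tested this way, about 760 (1.1%) reached 50% or more in at least one test.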
Mtb cholesterol medium: 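Phenotypic screen: M. tuberculosis growth, cholesterol and DPPC medium, 4 days; the read-out is not stated. Compounds at 50 µM. Higher reads as more growth inhibition (inferred: compounds with an IC50 in retests scored well above the rest). Of about 69,000 compounds tested this way, about 370 (0.54%) reached 50% or more in at least one test.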

Values are the deposited “Percent Effect”, in %.
The record does not define 0% and 100%; most values in the screen are far below 50% and negative numbers occur (in some assays of this library far below -100).
Compounds were drawn at random from those tested, without regard to their results.
Two or more numbers in one place are separate tests of the same structure; such repeats can differ widely.

Compound,Mtb glucose medium,Mtb cholesterol medium
CC(=O)c1ccc(CNC(=O)c2cc(C)nn2C)nc1C,1.637,9.843
CCc1ncc(C(=O)N2CCCN(C3CCCC3)CC2)cn1,-10.76,-9.853
CSCCC(=O)N1CCN(CC(C)O)CC1 (stereo not drawn),10.36 and 2.054,-7.496
O=C(CCCc1ccccn1)N1CCC(Nc2cccnn2)CC1,2.367,-18.37
Cc1nc(CN2CCN(CC(O)CN3CCOCC3)CC2)oc1C (stereo not drawn),-3.511,-16.52
O=C(Cn1ccc2ccccc21)Nc1cc(N2CCCC2)ncn1,24.69 and 10.01,5.326
CN(CCc1ccccn1)C(=O)c1cn(CCN2CCNCC2)nn1,7.87,1.451
COc1ccc(C2CC(=O)Oc3cc(C)[nH]c(=O)c32)c(OC)c1 (stereo not drawn),-39.37,-19.11
Cc1ccccc1CC(=O)N(C)C1CCN(c2ccccn2)CC1,11.37,-11.4
COc1ccc(Cl)cc1C(=O)NCc1cnn(C)c1C,9.427,-0.7983
O=C(C1=CCCC1)N1CCC[C@]2(C[C@@H](OCc3ccncc3)CO2)C1.O=C(O)C(F)(F)F,2.857,0.8573
CNc1nccnc1C1CCN(C(C)C)CC1,-40.89,-7.971
COCCN(C)C[C@@H]1CN(c2nnc(C(C)C)s2)C[C@@H]1CO,12.15,-0.6898
CCOC(=O)c1sc(NC(=O)C(C)C)c(C#N)c1C,24.88,4.912
Cc1nc(C2CCCN2C(=O)COc2ccccc2)ncc1C(N)=O (stereo not drawn),1.05,-12.14
Cc1cc(C)cc(OCCN(C)C(=O)NC(C)c2nncn2C)c1 (stereo not drawn),6.312,10.3
COc1coc(CN2CCCC3(CCC(=O)N(CC4CC4)C3)C2)cc1=O (stereo not drawn),-4.394,-19.58
Cc1nn(-c2ccccc2)nc1C(=O)NCC(c1ccco1)N(C)C (stereo not drawn),-12.97,-17.33
O=C1CC2(CCN(S(=O)(=O)C3CC3)C2)CN1c1cncnc1 (stereo not drawn),-13.02,-13.71
CN1C(=O)CC(C(=O)O)C12CCN(c1ccc3ccccc3n1)CC2 (stereo not drawn),-31.07,8.148
COCC1c2c(cnn2C)CCN1Cc1ccoc1 (stereo not drawn),10.18,10.91 and 1.652
Cc1cccc(N2CCN(Cc3nc(CC4CC4)no3)CC2)n1,31.89,5.23
Cc1cn2c(=O)c(-c3ccnc(N[C@@H]4CCOC4)n3)cnc2s1,13.66,-1.161
CC(C(=O)NN1CCOCC1)n1nc(C(F)(F)F)c(Cl)c1C1CC1 (stereo not drawn),14.65,-14.87
CSCCC(=O)N1CCCN(c2ccccc2C)CC1,-12.12,17.18
CC(C)CC(C)N(C)C(=O)c1nc(S(C)(=O)=O)n2ccccc12 (stereo not drawn),10.05,-6.836
OC(CN1CCN(c2ncccn2)CC1)c1cccc(F)c1 (stereo not drawn),24.27,4
COCC1CCCN(C(=O)c2ccccc2NCc2cccnc2)C1 (stereo not drawn),-3.226,-14.41
CNS(=O)(=O)c1cccc(C(C)NCc2ccc(F)cc2F)c1 (stereo not drawn),-6.746 and -3.41,-9.278
CN(C)CCCNC(=O)C1CC(=O)N(c2n[nH]c3cccc(F)c23)C1 (stereo not drawn),4.672,9.661
Cc1ccc(C#N)c(N2CCC3(CCC(=O)N(CC(N)=O)C3)CC2)n1,-8.127,-11.67
Cc1ccccc1CN(C)Cc1nc2c(cnn2C)c(=O)[nH]1,-26.58,-13.5
O=C(O)C(F)(F)F.[H][C@]12CN(Cc3cccnc3)C(=O)[C@@]1([H])CN(S(=O)(=O)C1CC1)C2,2.121,-4.209
c1cnnc(N2CCC(c3nnc(Cn4ccnc4)n3C3CC3)CC2)c1,-3.333,5.735 and -6.553
CCS(=O)(=O)N1CC(=O)N(CCCc2ccccc2)CC(O)C1 (stereo not drawn),1.17,-20.76
COc1ccccc1C(=O)N1CCN(CCc2scnc2C)CC1,-5.973,2.95
COC(=O)C(C)(C)C(C)(C)NC(=O)Nc1nnc(-c2ccccn2)s1,8.096,-0.9778
O=C(O)C(F)(F)F.[H][C@@]12CCN(c3ncccn3)C[C@@]1([H])O[C@@H](C(=O)NCc1ccco1)C2,12,-12.84
CC(C)c1sc(Cl)nc1C(=O)N1CCN(Cc2ccccc2)CC1,2.483,-8.106
COCCC(=O)Nc1nccn1Cc1ccc(Br)cc1,10.8,1.45
CN(Cc1ccc(N(C)C)cc1)C(=O)CS(=O)(=O)c1ccc(Cl)cc1,17.61 and -3.401,1.824
Cc1csc(NCC(=O)c2c[nH]c3ccccc23)n1.I,0.554 and 1.761,-38.44
O=C(NCc1ccc(F)cc1)C1CCCN(c2ccc3nncn3n2)C1 (stereo not drawn),-24.34,-17.6
Cc1ccc(C(=O)N2CCCN(Cc3cccs3)CC2)n1C,-7.34,2.306
Cc1cnc(C(=O)NCC2CCOc3ccccc3C2)cn1 (stereo not drawn),17.1 and 25.66,-1.686
Cc1cnn(CC2CN(Cc3nc(-c4ccco4)no3)CCO2)c1 (stereo not drawn),16.2,-7.014
CC(=O)c1ccc(N2CCC3(CCC(=O)N(CCCO)C3)CC2)nc1,0.6286 and 4.562,6.259
Cc1nc(C)n(CC2CCCN2CCCOc2ccc(F)cc2)n1 (stereo not drawn),22.21,13.85
O=C(CSc1ccccc1)N1CCC(N2CCCCC2=O)CC1,-4.138,-25.59

The first 4 entries again:

{"compound": "CC(=O)c1ccc(CNC(=O)c2cc(C)nn2C)nc1C", "Mtb glucose medium": 1.637, "Mtb cholesterol medium": 9.843}
{"compound": "CCc1ncc(C(=O)N2CCCN(C3CCCC3)CC2)cn1", "Mtb glucose medium": -10.76, "Mtb cholesterol medium": -9.853}
{"compound": "CSCCC(=O)N1CCN(CC(C)O)CC1", "stereo": "stereo not drawn", "Mtb glucose medium": "10.36 and 2.054", "Mtb cholesterol medium": -7.496}
{"compound": "O=C(CCCc1ccccn1)N1CCC(Nc2cccnn2)CC1", "Mtb glucose medium": 2.367, "Mtb cholesterol medium": -18.37}

Data taken from ChEMBL document CHEMBL3988442, “University of Dundee, Small-Polar-MMV Screening Library” (2021).